These are yes or no findings as the source states them, for the method shown. For part of these data: Binding seen in cells or lysates may run through a third protein. Some entries that bind do so weakly or less than the wild type. Where a sequence is shown, tags or fusion partners need not be part of it. Values belong to the molecule of their own block, whether it stands above or below them.
Legend:
FLAG-BCA1 (human) [1] = biological target: T1, FLAG-BCA1 (human); assay: co-immunoprecipitation from co-transfected cells with anti-Smurf2 antibody
T1 sequence: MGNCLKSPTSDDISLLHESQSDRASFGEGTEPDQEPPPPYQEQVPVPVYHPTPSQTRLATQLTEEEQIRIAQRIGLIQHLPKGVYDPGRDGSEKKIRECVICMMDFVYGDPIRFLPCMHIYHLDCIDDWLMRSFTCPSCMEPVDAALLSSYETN

Sequences of proteins named here, by UniProt entry; tags and fusion partners are left off.
UniProt Q9HAU4: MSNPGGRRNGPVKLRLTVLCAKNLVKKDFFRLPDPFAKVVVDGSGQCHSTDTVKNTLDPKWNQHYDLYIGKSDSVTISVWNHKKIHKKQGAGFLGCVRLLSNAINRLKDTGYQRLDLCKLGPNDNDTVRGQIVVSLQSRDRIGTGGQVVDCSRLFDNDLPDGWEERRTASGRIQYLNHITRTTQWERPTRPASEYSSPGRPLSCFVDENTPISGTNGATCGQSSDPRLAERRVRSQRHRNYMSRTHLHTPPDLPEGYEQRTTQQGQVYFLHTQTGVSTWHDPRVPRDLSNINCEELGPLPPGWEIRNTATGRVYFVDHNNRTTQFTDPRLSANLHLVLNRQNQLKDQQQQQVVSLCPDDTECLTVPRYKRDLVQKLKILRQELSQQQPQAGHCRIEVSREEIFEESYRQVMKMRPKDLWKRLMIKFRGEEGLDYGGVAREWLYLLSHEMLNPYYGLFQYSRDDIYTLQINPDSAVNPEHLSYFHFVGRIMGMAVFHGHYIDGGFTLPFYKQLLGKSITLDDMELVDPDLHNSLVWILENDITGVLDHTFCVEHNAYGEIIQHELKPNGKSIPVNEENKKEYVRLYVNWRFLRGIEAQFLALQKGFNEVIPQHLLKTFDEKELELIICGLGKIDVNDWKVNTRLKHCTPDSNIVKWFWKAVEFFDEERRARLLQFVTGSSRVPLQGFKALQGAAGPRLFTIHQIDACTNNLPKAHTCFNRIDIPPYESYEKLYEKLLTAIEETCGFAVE

FLAG-BCA1 (human) [2] = biological target: T1, FLAG-BCA1 (human); assay: GST pull-down from HEK-293T cell extracts, western blot with anti-FLAG antibody
FLAG-Smurf2 = FLAG-Smurf2 (UniProt Q9HAU4); assay: co-transfection of GST-BCA1, FLAG-Smurf2 and HA-ubiquitin; precipitation of FLAG-tagged protein, anti-HA western blot

binding (FLAG-BCA1 (human) [1]): binds
Molecule: GST-Smurf2 (from UniProt Q9HAU4 1-748) (enzyme)

binding (FLAG-BCA1 (human) [2]): binds
Molecule: GST-AIP4 (from UniProt P08515 1-218; Q96J02 1-862) (enzyme)

binding (FLAG-Smurf2): binds
B1: GST-BCA1 fusion protein (protein, not shown: a dimerising Fc or GST)
chain: MGNCLKSPTSDDISLLHESQSDRASFGEGTEPDQEPPPPYQEQVPVPVYHPTPSQTRLATQLTEEEQIRIAQRIGLIQHLPKGVYDPGRDGSEKKIRECVICMMDFVYGDPIRFLPCMHIYHLDCIDDWLMRSFTCPSCMEPVDAALLSSYETN

From patent US20050065333A1
